± gives the standard deviation. The entries are a selection whose mix differs from that of the whole data set. Many of these values have a large error.
What follows are sequences tested on EfPiwi piRISC loaded with piRNA #1 (26 nt) (assay: pre-steady-state target cleavage rate (min^-1); guide: piRNA #1 5'p-UGAGGUAGUAGGUUGUAUAGUAUCCA; MIWI and MILI are mouse PIWI proteins and EfPiwi is from a freshwater sponge; tags in brackets are library labels; higher = faster piRNA-guided slicing of the target). Settings: auxiliary factor: 500 nM Ephydatia muelleri Gtsf1.
Summary of the method: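 Active affinity-purified piRISC (1 nM) loaded with one synthetic guide was mixed with a transcribed, DNA-blocked target RNA library (0.1 nM), with or without 500 nM GTSF1 partner protein, in HEPES–potassium acetate buffer at 33 °C for 0–8 or 0–960 min. Uncleaved targets were sequenced, normalised to depth and to weakly complementary targets, and pooled across three trials, with k3 capped at 0.0001 min^-1. The pre-steady-state cleavage rate was determined with a burst-and-steady-state fit.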
In the case of GGAGACCAUACUAAACAACCUACUACCUCA, the “pre-steady-state target cleavage rate” value is reported as 0.0127 ± 0.0048. In the case of GGAGACCUAUCUAUACAACCUACCACCUCA, the “pre-steady-state target cleavage rate” value is reported as 0.00396 ± 0.0045. For GGAGAGGAUACUAUACAACCUACUACCUA, the “pre-steady-state target cleavage rate” value was 0.217 ± 0.081. With GGAGACCUAUCUAUACAACCUACUACGCUCA the “pre-steady-state target cleavage rate” value was 0.00173 ± 0.0053. GGAGAGGAUCACUAUACAACCUACUACCUCA was tested, and the “pre-steady-state target cleavage rate” value was 0.00867 ± 0.0051. In the case of GGAGUCGAUACUAUAGAACCUACUACCUCA, the “pre-steady-state target cleavage rate” value is reported as 0.00147 ± 0.0017. With GGAGACCUAUGAUAUGUUGCUACGACCUCA the “pre-steady-state target cleavage rate” value was 0.000893 ± 0.0086. In the case of GGAGAGGAUACGAUACAACCUACUACCUCA, the “pre-steady-state target cleavage rate” value is reported as 0.00899 ± 0.0037. With GGAGAGGAUACUAUACAUCCUACAACCUCA the “pre-steady-state target cleavage rate” value was 0.00339 ± 0.0022. In the case of GGAGACCUAUGUAUACAUCCUACUACCACA, the “pre-steady-state target cleavage rate” value is reported as 0.00047 ± 0.011. GGAGACCUAACUAUAUCAACCUACUACCUCA was tested, and the “pre-steady-state target cleavage rate” value was 0.00397 ± 0.0043. For GGAGACCAUACUAAAGAACCUACUACCUCA, the “pre-steady-state target cleavage rate” value was 0.00225 ± 0.0046. With GGAGACCUAAGUAUACAACCUACUACCUCA the “pre-steady-state target cleavage rate” value was 0.00697 ± 0.0037. In the case of GGAGACCUAUGAAUACAACCUACUAGGUCA, the “pre-steady-state target cleavage rate” value is reported as 0.000871 ± 0.0056. GGAGAGGAUACUAUACAACCCACUACCUCA was tested, and the “pre-steady-state target cleavage rate” value was 0.00601 ± 0.0024. With GGAGACCAUACUAUACAACCUUCAACCUCA the “pre-steady-state target cleavage rate” value was 0.000693 ± 0.005.
